PubChem BioAssay AID504808, Drosophila RNAi Screening Center, 2011

- Assay: 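Fly genes required to hold E2F transcription in check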 (primary screen)
- System: Drosophila S2 cells
- Knock-down reagent: long dsRNA against Drosophila genes
- Detection: 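Dual luciferase plate measurements; E2F-specific signal taken as firefly over Renilla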
- Scale: E2F firefly: higher = more E2F reporter activity; Renilla normaliser: higher = more normaliser reporter signal
- Rule for the call: 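a knock-down counted as active when the firefly/Renilla E2F signal rose above 50%, a threshold chosen arbitrarily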
The screen tested about 21,000 reagents; shown is a random part of those that have a named target and a result. In the full data, 18 (0.084%) were called active. 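Raw counts without plate normalisation, one of two replicates; the ratio scores behind the calls were not deposited.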 A number with no mark means an inactive call. A plus sign joins genes that one reagent is predicted to hit. The record does not give: the amount of reagent, the time to read-out.

| gene knocked down | amplicon | E2F firefly, rep 1 | Renilla normaliser, rep 1 |
| --- | --- | --- | --- |
| SH3PX1 (GeneID 39136) | DRSC11139 | 1.06e5 | 5204 |
| CG7824 (GeneID 43530) | DRSC16321 | 1.24e5 | 6654 |
| Tak1 (GeneID 39659) | DRSC20390 | 85000 | 2428 |
| Tak1 (GeneID 39659) | DRSC20561 | 1.55e5 | 6599 |
| Tak1 (GeneID 39659) | DRSC20562 | 1.32e5 | 6701 |
| Cyp6g1 (GeneID 36316) | DRSC07386 | 2632 | 223 |
| ftz (GeneID 40834) | DRSC12626 | 1.31e5 | 6592 |
| CG7546 (GeneID 38844) | DRSC08885 | 1.30e5 | 5081 |
| CG7546 (GeneID 38844) | DRSC10871 | 64805 | 3947 |
| ARY (retired record) (GeneID 3355076) | DRSC20867 | 73504 | 2371 |
| CG9269 (GeneID 41663) | DRSC16465 | 1.22e5 | 6815 |
| gsb-n (GeneID 38004) | DRSC04021 | 1.29e5 | 5150 |
| gsb-n (GeneID 38004) | DRSC04693 | 1.25e5 | 5278 |
| CG8507 (GeneID 41205) | DRSC16435 | 1.30e5 | 6392 |
| wek (GeneID 48785) | DRSC03561 | 86235 | 3680 |
| Tim17b2 (GeneID 44381) | DRSC03457 | 1.07e5 | 4628 |
| CG6083 (GeneID 39305) | DRSC10580 | 99284 | 5199 |
| CG4815 (GeneID 43360) | DRSC15653 | 1.28e5 | 6083 |
| ash1 (GeneID 40133) | DRSC11325 | 66170 | 3385 |
| dpr5 (GeneID 41381) | DRSC15766 | 1.43e5 | 6424 |
| CG7841 (GeneID 39672) | DRSC10922 | 1.56e5 | 7623 |
| CG6163 (GeneID 39274) | DRSC10595 | 1.42e5 | 7573 |
| mip120 (GeneID 36499) | DRSC06960 | 91719 | 4476 |
| sna (GeneID 34908) | DRSC03613 | 1.04e5 | 4243 |
| CG8032 (GeneID 41026) | DRSC16365 | 1.46e5 | 7268 |
| Pi3K59F (GeneID 37733) | DRSC04640 | 85519 | 3717 |
| CG31195 (GeneID 46155) | DRSC13440 | 80435 | 2301 |
| Cyfip (GeneID 41861) | DRSC15679 | 84122 | 3900 |
| CG5348 (GeneID 36877) | DRSC06933 | 1.62e5 | 5694 |
| CG7806 (GeneID 34140) | DRSC03071 | 90495 | 3476 |
| Octbeta2R (GeneID 41549) | DRSC15350 | 1.34e5 | 6395 |
| Octbeta2R (GeneID 41549) | DRSC16165 | 1.42e5 | 7550 |
| CG13721 (GeneID 38556) | DRSC08330 | 89152 | 3439 |
| RpL32 (GeneID 43573) | DRSC16835 | 54882 | 4429 |
| CG33111 (GeneID 50068) | DRSC14208 | 1.10e5 | 5500 |
| CG33111 (GeneID 50068) | DRSC14444 | 1.12e5 | 6118 |
| Trxr2 (GeneID 40475) | DRSC11900 | 1.18e5 | 5921 |
| RpL27A (GeneID 33654) | DRSC00781 | 92392 | 144 |
| BckdhB (GeneID 3355069) | DRSC21183 | 1.49e5 | 7161 |
| ms(2)34Fe (GeneID 34833) | DRSC01905 | 97210 | 4326 |
| BaraB (GeneID 35894) | DRSC06420 | 1.56e5 | 4934 |
| CG9331 (GeneID 35347) | DRSC03206 | 78668 | 2884 |
| Cpr78Ca (GeneID 40352) | DRSC11651 | 1.33e5 | 6017 |
| CG33191 + Pif1B | DRSC12706 | 63960 | 3935 |
| CG10280 (GeneID 40740) | DRSC12133 | 1.26e5 | 5441 |
| Cpr62Ba (GeneID 38239) | DRSC08403 | 95876 | 4191 |
| pad (GeneID 41981) | DRSC14227 | 1.17e5 | 6292 |
| slam (GeneID 33890) | DRSC03240 | 1.44e5 | 4909 |
| mTor (GeneID 47396) | DRSC02811 | 62737 | 2565 |
| CG5853 (GeneID 34322) | DRSC01103 | 1.38e5 | 6249 |
| CG5853 (GeneID 34322) | DRSC02906 | 76538 | 3088 |
| CG14631 (GeneID 31049) | DRSC17792 | 35425 | 3379 |
| CG14631 (GeneID 31049) | DRSC17941 | 51149 | 4621 |
| Hil (GeneID 37328) | DRSC05989 | 67066 | 3498 |
| Hil (GeneID 37328) | DRSC06395 | 84455 | 3857 |
| CG31446 (GeneID 318741) | DRSC13111 | 80153 | 2880 |
| dpp (GeneID 33432) | DRSC00118 | 1.45e5 | 5381 |
| dpp (GeneID 33432) | DRSC00121 | 1.39e5 | 5776 |
| dpp (GeneID 33432) | DRSC00813 | 1.62e5 | 5580 |

Single entries from the list.
ftz (GeneID 40834) [DRSC12626], Renilla normaliser, rep 1: 6592
sna (GeneID 34908) [DRSC03613], E2F firefly, rep 1 = 1.04e5
Cyp6g1 (GeneID 36316) [DRSC07386], E2F firefly, rep 1: 2632
Cyfip (GeneID 41861) [DRSC15679], E2F firefly, rep 1: 84122
For “E2F firefly, rep 1”, dpp (GeneID 33432) [DRSC00121] is entered as 1.39e5
CG9269 (GeneID 41663) [DRSC16465], Renilla normaliser, rep 1 → 6815
